These are yes or no findings as the source states them, for the method shown. In cells and extracts the contact can be indirect. Binding can be weak; no strength is given.
Columns and labels:
[1] = biological target: Telomeric repeat binding factor 2 (TRF2), endogenous (human (endogenous in C1, UTC8505, RD and HEK293T cells)); assay: proximity ligation; Duolink PLA in fixed, permeabilised C1 cells with antibodies to HMGA2 (D1A7), TRF2 and RAP1; a minimum of 30 nuclei quantified
[2] = biological target: Telomeric repeat binding factor 2 (TRF2), endogenous (human (endogenous in C1, UTC8505, RD and HEK293T cells)); assay: co-IP; IP with antibody to HMGA2 or to TRF2 from nuclear extracts (C1, UTC8505 transfectants, RD); lysis buffer 50 mM Tris-HCl pH 7.5, 150 mM NaCl, 0.2% Triton X-100, 0.3% NP-40; 4°C; protein G-agarose/protein A-sepharose; IgG controls; cells with or without MMS, dox, or RAP1 siRNA

binding [1]: binds | binding [2]: binds
B1: RAP1, endogenous (protein, UniProt Q9NYB0 1-399)
chain: MAEAMDLGKDPNGPTHSSTLFVRDDGSSMSFYVRPSPAKRRLSTLILHGGGTVCRVQEPGAVLLAQPGEALAEASGDFISTQYILDCVERNERLELEAYRLGPASAADTGSEAKPGALAEGAAEPEPQRHAGRIAFTDADDVAILTYVKENARSPSSVTGNALWKAMEKSSLTQHSWQSLKDRYLKHLRGQEHKYLLGDAPVSPSSQKLKRKAEEDPEAADSGEPQNKRTPDLPEEEYVKEEIQENEEAVKKMLVEATREFEEVVVDESPPDFEIHITMCDDDPPTPEEDSETQPDEEEEEEEEKVSQPEVGAAIKIIRQLMEKFNLDLSTVTQAFLKNSGELEATSAFLASGQRADGYPIWSRQDDIDLQKDDEDTREALVKKFGAQNVARRIEFRKK

— paper PMC4914320
